Experimental findings from paper PMC7532662 are described below.

These are yes or no findings as the source states them, for the method shown. In cells and extracts the contact can be indirect. Binding can be weak; no strength is given. Where a sequence is shown, tags or fusion partners need not be part of it.

In this test the target is α-tubulin, endogenous (human (endogenous in MDA-MB-231 and 293T)). The test can be described thus: co-IP; lysate of SYTL4-overexpressing MDA-MB-231 cells, precipitated with anti-α-tubulin antibody, western blot. On the technique in general: Immunoblotting shows a protein as a band on a membrane.

B1: Synaptotagmin-like 4 (SYTL4), overexpressed without a tag (protein, UniProt Q96C24 1-671)
chain: MSELLDLSFLSEEEKDLILSVLQRDEEVRKADEKRIRRLKNELLEIKRKGAKRGSQHYSDRTCARCQESLGRLSPKTNTCRGCNHLVCRDCRIQESNGTWRCKVCAKEIELKKATGDWFYDQKVNRFAYRTGSEIIRMSLRHKPAVSKRETVGQSLLHQTQMGDIWPGRKIIQERQKEPSVLFEVPKLKSGKSALEAESESLDSFTADSDSTSRRDSLDKSGLFPEWKKMSAPKSQVEKETQPGGQNVVFVDEGEMIFKKNTRKILRPSEYTKSVIDLRPEDVVHESGSLGDRSKSVPGLNVDMEEEEEEEDIDHLVKLHRQKLARSSMQSGSSMSTIGSMMSIYSEAGDFGNIFVTGRIAFSLKYEQQTQSLVVHVKECHQLAYADEAKKRSNPYVKTYLLPDKSRQGKRKTSIKRDTINPLYDETLRYEIPESLLAQRTLQFSVWHHGRFGRNTFLGEAEIQMDSWKLDKKLDHCLPLHGKISAESPTGLPSHKGELVVSLKYIPASKTPVGGDRKKSKGGEGGELQVWIKEAKNLTAAKAGGTSDSFVKGYLLPMRNKASKRKTPVMKKTLNPHYNHTFVYNGVRLEDLQHMCLELTVWDREPLASNDFLGGVRLGVGTGISNGEVVDWMDSTGEEVSLWQKMRQYPGSWAEGTLQLRSSMAKQKLGL
Take B1: the binding result is listed as “binds”.
